Measurements reported in the supplement of paper PMC12067093, “Discovery and optimisation of a covalent ligand for TRIM25 and its application to targeted protein ubiquitination” (Chemical Science, 2025).
The other results are listed elsewhere or left out.

Each target was assayed with CC1Cc2ccccc2N1C(=O)C1CCCN(C1)C(=O)CCl (mixture of isomers) [TRIM25 ligand 11 (diastereomer mixture)] (assay: probe-labelled cysteine peptide fold change vs DMSO (competition) (log2 fold change); higher = less target engagement (more negative = stronger competition)). Details: 10 µM; THP-1; incubation time: 4 h.
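Note: competitive chemoproteomic profiling in live THP-1 cells with an iodoacetamide desthiobiotin (IA-DTB) probe, comparing probe-labelled peptide intensities in compound-treated cells against DMSO-treated controls.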

Point of comparison: “MYH9_P35579_917_KQELEEICHDLEARVEEEEER (UniProt P35579)”, “probe-labelled cysteine peptide fold change” value -0.38. Against it:
- NBN_O60934_478_ERDEENQEMSSCK (UniProt O60934) — higher, -0.0748
- MYO1G_B0I1T2_472_GILAVLDEACSSAGTITDR (UniProt B0I1T2) — higher, 0.0341
- NAA80_Q93015_104_LHSLGQSSDAFPLCLMLLSPHPTLEAAPVVVGHAR (UniProt Q93015) — higher, -0.101
- NAA16_Q6N069_82_SHVCWHVYGLLQR (UniProt Q6N069) — higher, -0.208
- MYL6_P60660-2_138_MTEEEVEMLVAGHEDSNGCINYEELVR (UniProt P60660) — higher, -0.0834
- NCAM1_P13591_96_CVVTGEDGSESEATVNVK (UniProt P13591) — higher, 0.0903
- NAPA_P54920_212+215_AALCHFCIDMLNAK (UniProt P54920) — higher, -0.0124
- NCAPG_Q9BPX3_843_ICNEILTSPCSPEIR (UniProt Q9BPX3) — higher, 0.015
- MYO9B_Q13459_152_QQADFDDLCNLPELTEGNLLK (UniProt Q13459) — higher, -0.135
- NBEAL2_Q6ZNJ1_822_TLCTLGPNETAPFKPEGELHELSTR (UniProt Q6ZNJ1) — higher, 0.153
- NANS_Q9NR45_19_WVGGQHPCFIIAEIGQNHQGDLDVAK (UniProt Q9NR45) — higher, 0.0689
- NCBP1_Q09161_332_TCAAQLVSYPGK (UniProt Q09161) — higher, -0.0334
- NADK2_Q4G0N4_311_SSGLNLCTGTGSK (UniProt Q4G0N4) — higher, -0.0288
- NCAM1_P13591_829_GPVEAKPECQETETK (UniProt P13591) — higher, 0.112
